The list shows a part of the results. The main result of the screen is listed elsewhere. These columns were measured beside it and carry no call. Compounds called inactive in the main read-out are mostly missing here. The note in brackets gives the kind of curve behind each potency; many fits are weak.

The assay in a line: Cell signaling CRE-BLA (Fsk stim). The following applies: CHO CRE-bla reporter (cAMP response element driving beta-lactamase), forskolin EC10, beta-lactamase ratio; measured here: 460 nm blue channel. The gist of the method:
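Modulation of forskolin signalling: compounds in titration series added with EC10 NKH 477 to CHO cells carrying a CRE-driven beta-lactamase reporter, 3 h, 37C. CCF4 FRET ratio (460/530 nm, ex 405 nm) gives %activity and AC50.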
With `CC1CC(C)CN(c2nc3c(c(=O)[nH]c(=O)n3C)n2CCCSc2nc3ccccc3s2)C1` (stereo not drawn), the half-maximal activity concentration (AC50) – broadly, the concentration at which the activity in the assay is half-maximal – was 2.51 µM [rising, single point].
Take `CCOC(=O)c1cnc2nc(Cc3ccccc3)[nH]n2c1=O`: the AC50 was 0.631 µM [falling, full curve, poor fit].
Take `COc1cc(OC)c(CN2CCN(c3ccc(F)cc3)CC2)cc1Br`: the concentration at half-maximal activity (AC50) was 0.398 µM [rising, partial curve].
Consider `COc1ccc(CC(=O)NCc2ccccc2)cc1S(=O)(=O)N1CCOCC1`, for which the half-maximal activity concentration (AC50) is 3.98 µM [falling, partial curve].
`CCCc1c(C)c2ccc(OCC(C)=O)cc2oc1=O`: the AC50 is 12.6 µM [rising, single point].
Consider `CC1=C(C(=O)OCCOC(C)C)C(c2cc3c(cc2Br)OCO3)C2=C(CCCC2=O)N1` (stereo not drawn), for which the AC50 was 25.1 µM [falling, single point].
As for `c1ccc(-c2ccc(N3CC4(CCNCC4)C3)cc2)cc1`, the concentration at half-maximal activity (AC50) was 25.1 µM [rising, single point].
For the compound `Cn1nnnc1SCC(=O)Nc1ccccc1C(=O)NCc1ccccc1`, the half-maximal activity concentration (AC50) was 0.00316 µM [falling, full curve, poor fit].
Take `O=c1cnc2ccccc2n1CC1CCCCC1`: the half-maximal activity concentration (AC50) was 3.98 µM [falling, single point].
Turning to `CCN(CC)c1ccc(NC(=O)c2ccc(NC(=O)C3CCCO3)cc2)c(C)c1` (stereo not drawn), the half-maximal activity concentration (AC50) was 6.31 µM [falling, partial curve, poor fit].
The same measure for `COc1cc(C(=O)OCC(=O)c2cc(C)n(C)c2C)cc(OC)c1OC`: 2 µM [rising, full curve]; for `O=C(NCCN1CCCC1)C1CCN(S(=O)(=O)N2CCC3(CC2)OCCO3)CC1`: 3.98 µM [falling, partial curve]; for `Cc1ccc2cc(COC(=O)c3ccncc3)c(=O)[nH]c2c1`: 3.98 µM [falling, partial curve].
For `COc1ccc(-n2c(=S)[nH]c3cc(C(=O)NCCCN4CCCC4=O)ccc3c2=O)cc1`, the concentration at half-maximal activity (AC50) was 0.00794 µM [falling, full curve, poor fit].
As to `CCCn1c(SCC(=O)Nc2cccc(C(=O)OC)c2)nnc1-c1cccnc1`, the AC50 is 0.01 µM [falling, full curve, poor fit].
The same measure for `COCCNc1ncnc2ccc(-c3cccnc3)cc12`: 3.16 µM [rising, full curve]; for `CCOc1ccc(-c2nnc3ccc(SCc4ccc(C(=O)OC)o4)nn23)cc1`: 2 µM [rising, full curve].
In the case of `Cc1cc2ncn(C(=O)c3c(-c4ccccc4)noc3C)c2cc1C`, the AC50 is 0.0158 µM [falling, partial curve, poor fit].
With `COc1cc(-c2nc(Cc3c(F)cccc3Cl)no2)cc(OC)c1OC` the figure was 1 µM [rising, partial curve].
For the compound `COC(=O)c1cc(OC)c(OC)cc1N=CC1=C(O)CC(C)(C)CC1=O`, the AC50 was 6.31 µM [rising, partial curve].
As for `O=C(Cn1nnc(-c2ccccc2)n1)c1ccccc1`, the AC50 was 0.316 µM [falling, full curve].
Consider `Nc1nnc(SCc2cccc(C(F)(F)F)c2)s1`, for which the half-maximal activity concentration (AC50) is 2.51 µM [falling, partial curve, poor fit].
`CCN1c2ccccc2-c2nc3ccccc3n2C1c1ccccn1` (stereo not drawn): the AC50 is 12.6 µM [rising, partial curve].
On to `CCCN(c1ccc(OCC)cc1)S(=O)(=O)c1ccc2c(c1)CCN2C(=O)CCC(=O)O`, for which the AC50 is 1.26 µM [falling, partial curve].
With `CCn1c(SCc2nc(-c3ccc(OC)c(OC)c3)no2)nnc1-c1cccs1` the figure was 25.1 µM [rising, single point].
`CCN(Cc1ccccc1)S(=O)(=O)c1ccc(C(=O)Nc2nnc(-c3ccccc3OC)o2)cc1`: the concentration at half-maximal activity (AC50) is 0.00398 µM [falling, full curve].
As to `CCOC(=O)Cc1nnc(NC(=O)c2ccccc2OC)s1`, the half-maximal activity concentration (AC50) was 25.1 µM [rising, single point].
As to `CCN(CC)CCNC(=O)CS(=O)Cc1nc(-c2ccccc2Cl)oc1C` (stereo not drawn), the AC50 was 0.00398 µM [falling, full curve, poor fit].
Take `COC(=O)Nc1cc(C)nc2ccccc12`: the concentration at half-maximal activity (AC50) is 25.1 µM [rising, single point].
Consider `COC(=O)CSc1nnc(CSc2nc(C)cc(C)n2)n1Cc1ccco1`, for which the AC50 is 12.6 µM [rising, partial curve].
Take `O=C(NC1CCN(C(=O)N2c3ccccc3Sc3ccccc32)CC1)c1ccco1`: the half-maximal activity concentration (AC50) is 10 µM [falling, partial curve, poor fit].
With `Cc1cc(NC(=O)c2cc(-c3ccccn3)nc3ccccc23)no1`, the AC50 is 0.126 µM [rising, full curve, poor fit].
As for `CCOC(=O)c1sc2nc(CC(=O)OC)nc(NCCN3CCOCC3)c2c1C`, the concentration at half-maximal activity (AC50) is 12.6 µM [rising, single point].
With `COc1ccc(-c2nnc(SCc3ccccc3F)o2)cc1OC` the figure was 10 µM [rising, partial curve]; with `CC(C)Nc1nnc(SCC(=O)Nc2ccc(F)cc2)s1`, 0.00316 µM [falling, full curve, poor fit].
Regarding `CCOC(=O)c1cnc(SCc2nc(N)nc(Nc3ccc(F)cc3)n2)nc1N`, the half-maximal activity concentration (AC50) is 7.94 µM [rising, partial curve].
With `COc1ccc(Cl)cc1NC(=O)C1CSC(c2ccncc2)=N1` (stereo not drawn) the figure was 6.31 µM [rising, partial curve].
For `O=c1cc(-c2ccncc2)oc2ccccc12`, the AC50 is 10 µM [falling, partial curve].
`CCOC(=O)C1Cc2ccccc2C(=O)O1` (stereo not drawn): the concentration at half-maximal activity (AC50) is 1 µM [falling, single point].
Regarding `COC(=O)c1cc(-c2ccc3c(c2)OCO3)nc2ccccc12`, the AC50 was 12.6 µM [rising, partial curve].
With `CCOC(=O)c1cnc2c(C)cccc2c1NCc1ccco1`, the AC50 was 10 µM [rising, partial curve].
The same measure for `CCOC(=O)c1ccccc1NC(=O)CC1Nc2ccccc2NC1=O` (stereo not drawn): 10 µM [rising, partial curve]; for `COc1ccc2oc(=O)c(C(=O)N3CCN(c4ccccc4)CC3)cc2c1`: 0.1 µM [falling, partial curve, poor fit].
As for `CN1CCN(c2ncc3ncc(=O)n(Cc4cccs4)c3n2)CC1`, the AC50 was 12.6 µM [rising, partial curve].
For the compound `N#Cc1cccc(-c2nc(NCCN3CCOCC3)c3ccccc3n2)c1`, the AC50 is 10 µM [rising, partial curve].
With `CSc1nnc2c3ccccc3n(CCc3ccccc3)c2n1`, the half-maximal activity concentration (AC50) was 0.501 µM [rising, partial curve].
Regarding `CCOC(=O)N1CCN(C(=O)CSc2nc3c(cnn3-c3ccc(C)cc3)c(=O)[nH]2)CC1`, the half-maximal activity concentration (AC50) is 10 µM [rising, partial curve].
In the case of `CN1CCN(c2ccc(Cl)cc2NC(=O)c2cccc(S(=O)(=O)N(C)C)c2)CC1`, the AC50 was 5.01 µM [rising, full curve].
The same measure for `c1coc(Cn2c(SCc3nc4ccccc4[nH]3)nnc2-c2cnccn2)c1`: 12.6 µM [falling, single point]; for `COc1ccccc1C(=O)n1nc(-c2ccco2)nc1N`: 0.00794 µM [falling, full curve, poor fit]; for `O=C1NCN(c2ccccc2)C12CCN(CCCC(c1ccc(F)cc1)c1ccc(F)cc1)CC2`: 10 µM [falling, single point].
Take `O=S(=O)(c1cccc(-c2cn3cccnc3n2)c1)N1CCOCC1`: the AC50 was 25.1 µM [rising, single point].
Consider `CN(C)C(=O)c1ccc(-c2ccc3ncnc(NC4CC4)c3c2)cc1`, for which the AC50 is 7.94 µM [rising, partial curve].
The same measure for `O=C1CC(Sc2nnnn2C2CCCCC2)C(=O)N1c1ccccc1` (stereo not drawn): 1 µM [rising, partial curve].
As for `Cn1nc(C(=O)Nc2cccnc2)c2ccccc2c1=O`, the concentration at half-maximal activity (AC50) was 12.6 µM [rising, partial curve].
With `O=C(c1cccc(C(=O)N2CCN(c3ccccc3F)CC2)c1)N1CCN(c2ccccc2F)CC1`, the half-maximal activity concentration (AC50) is 0.316 µM [rising, partial curve, poor fit].
For the compound `CC(C)(C)C(=O)OCOC(=O)[C@@H]1N2C(=O)[C@@H](NC(=O)[C@H](N)c3ccccc3)[C@H]2SC1(C)C`, the concentration at half-maximal activity (AC50) was 10 µM [falling, partial curve, poor fit].
With `CCOC(=O)C1CCN(Cc2nc3ccccc3c(=O)n2-c2ccc(OCC)cc2)CC1` the figure was 10 µM [rising, partial curve]; with `Cc1cc(=O)oc2cc(NC(=O)C3COc4ccccc4O3)ccc12` (stereo not drawn), 10 µM [rising, partial curve].
For `O=c1c(-c2cccs2)nc2cnc(N3CCOCC3)nc2n1-c1ccccc1`, the AC50 is 2.51 µM [rising, full curve].
With `Cc1cc(Cl)ccc1OCCCC(N)=O` the figure was 25.1 µM [rising, single point].
`Cn1c(CNC(=O)Nc2cccc(Cl)c2)nnc1SCc1ccccc1`: the half-maximal activity concentration (AC50) is 0.0501 µM [falling, full curve, poor fit].
`CCn1c2c(c3cc(Cl)ccc31)CCCC2=O`: the AC50 was 10 µM [rising, partial curve].
`CCN(CC)CCCNC(=O)c1nn(-c2ccccc2OC)c(=O)c2ccccc12`: the AC50 is 3.98 µM [falling, partial curve].
With `O=C(NCN1CCN(c2ccccc2F)CC1)c1ccccc1`, the AC50 is 0.251 µM [falling, full curve].
With `CCCn1nc(NC(=O)c2ccncc2)c2cc3ccccc3nc21` the figure was 7.94 µM [rising, partial curve]; with `COC(=O)c1[nH]cnc1C(=O)c1ccccc1`, 10 µM [falling, partial curve]; with `CCNC(=O)c1c(O)c2ccccc2[nH]c1=O`, 10 µM [rising, partial curve].

(Values after PubChem BioAssay AID662 (National Center for Advancing Translational Sciences (NCATS), 2007).)
